The other results are listed elsewhere or left out.
molecular target: OsWRKY34 (Oryza sativa, UniProt Q0JBA9 1-250); experiment: protein-binding microarray (RPBM); PBS, 2% BSA, 51.3 ng/ul salmon testes DNA, 50 uM zinc acetate, 200 nM TF, 25 C, 1 h; high values mean tight binding; settings: protein: recombinant; tags: N-terminal polyhistidine and DsRed monomer fusion (pET32a); label: CyDye5-dUTP incorporated in the synthesized complementary strand; 3' TTTTT single-stranded linker to array surface; dsDNA, one strand shown
Summary of the method: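 Using Ni–NTA, transcription factors fused N-terminally to polyhistidine and DsRed were purified after expression in E. coli BL21-CodonPlus. These were incubated at 200 nM with a blocked, double-stranded custom Agilent array for 1 h at 25 °C in a buffer containing 50 µM zinc acetate, and the array was washed. The binding signal is per-feature fluorescence intensity (arbitrary units) on an Axon 4000B scanner.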

Amino acid sequences for entries named in this document (tags omitted).
UniProt Q0JBA9, entry or part of it: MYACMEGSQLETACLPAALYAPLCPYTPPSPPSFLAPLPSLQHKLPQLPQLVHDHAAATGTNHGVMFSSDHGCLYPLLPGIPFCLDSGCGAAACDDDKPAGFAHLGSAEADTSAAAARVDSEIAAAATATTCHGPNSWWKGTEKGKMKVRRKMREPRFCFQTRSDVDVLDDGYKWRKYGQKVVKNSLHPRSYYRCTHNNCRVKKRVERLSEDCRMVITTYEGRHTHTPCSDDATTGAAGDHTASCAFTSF

Sequence	binding signal
AAAAAAAAGAGCGATTCCTTTGCGCGCCTCGCGATTCGTCCGGAGTCACCTAGTGCAG	10300 fluorescence intensity (a.u.)
AAATATTTTTTTCACCCGTTATAACACACGAGTTTTTTCGCGGAGTCACCTAGTGCAG	8450 fluorescence intensity (a.u.)
ACCTCTCATACAATACCCTATATAATACCATATGTCCTATCGGAGTCACCTAGTGCAG	8170 fluorescence intensity (a.u.)
ATATATATGTTCGATCACTCCCACACAATTCTCCAAACCACGGAGTCACCTAGTGCAG	8280 fluorescence intensity (a.u.)
CTTTTAATTACTCCGATTTCGTAGCGCATATCGACTCTCCCGGAGTCACCTAGTGCAG	8510 fluorescence intensity (a.u.)
TCTCTCTCCTTCCTGTGTGGCAGTGGGTCCCATTTCTGACCGGAGTCACCTAGTGCAG	8820 fluorescence intensity (a.u.)
GGCTTAACCTGTGCGTGTGTGTGGTCTATTTAACCAATGTCGGAGTCACCTAGTGCAG	8700 fluorescence intensity (a.u.)
TGGGCTTTTTTCTTTTGTTTGAATGGAGGGAGTACGCAGTCGGAGTCACCTAGTGCAG	11000 fluorescence intensity (a.u.)
CTCCCTGTCTGTGCACGGGCCCTACACCGTTGCAACACGCCGGAGTCACCTAGTGCAG	11300 fluorescence intensity (a.u.)
AGTCAAGCTCCTCTTCTATTATGTCTTCGTCAATACTATTCGGAGTCACCTAGTGCAG	9750 fluorescence intensity (a.u.)
TGTCTTCTGTTGTTCTTCCTCTACATCTACATCTCTCGGGCGGAGTCACCTAGTGCAG	9920 fluorescence intensity (a.u.)
TGTGCCTGCCGACTCGCCCACGCAACTCCGACTCTTTCCTCGGAGTCACCTAGTGCAG	13500 fluorescence intensity (a.u.)
ATCATGGCCAATCCACACTTGTTGTTGTTCTTTCCCTTCGCGGAGTCACCTAGTGCAG	8600 fluorescence intensity (a.u.)
AACTCTTTTTAGGCTGCGTTCGTTCTAGATACATTGAGTTCGGAGTCACCTAGTGCAG	9260 fluorescence intensity (a.u.)
CCTCTCGATCTCGCCTCCGCCGTCCGCCGCCGCCGCCGCCCGGAGTCACCTAGTGCAG	14400 fluorescence intensity (a.u.)
AGGACACCTTAGCATTCAGCCATCTTATTTCTCTGTATTACGGAGTCACCTAGTGCAG	9420 fluorescence intensity (a.u.)
TTGCTATATATTATACTCCTTCACTTTTCATCCACTCTCCCGGAGTCACCTAGTGCAG	8270 fluorescence intensity (a.u.)
CCGCAGCTCCGCAACCTCGACCGCTTCGACTCCAACATCACGGAGTCACCTAGTGCAG	8240 fluorescence intensity (a.u.)
ATCTCTTTTGCATTTGTTCGTCCCTTTCGTTTTCAACTTGCGGAGTCACCTAGTGCAG	9290 fluorescence intensity (a.u.)
GGGTGGGGTGGGCCTGGGCTGATGCATGTTTGGCGCTTAGCGGAGTCACCTAGTGCAG	21200 fluorescence intensity (a.u.)
AGACTGGTTTTTTATTGGTTGGTCAACAAAGCCATTCCTTCGGAGTCACCTAGTGCAG	9110 fluorescence intensity (a.u.)

Sequence	binding signal
CGCATCATCCGCCTAATAACCATGAACTCGGAGGGAGGGACGGAGTCACCTAGTGCAG	8510 fluorescence intensity (a.u.)
ACGGATTTAACACTCACTATTTATGACATGTGTACCATCACGGAGTCACCTAGTGCAG	9100 fluorescence intensity (a.u.)
CCTCAGTTCCCGGCCACATCCGTCGGCATCTTCTTCCTTCCGGAGTCACCTAGTGCAG	9560 fluorescence intensity (a.u.)
ACTTCCGATCCCACCACCCACATGCGCCGCCTACCCACCTCGGAGTCACCTAGTGCAG	9140 fluorescence intensity (a.u.)
ATGCCCGTCGCTTTCAGTTCGCGTGCCCGCTTCACGTATCCGGAGTCACCTAGTGCAG	9740 fluorescence intensity (a.u.)
TAATGTTTTCTTTCATACTATTGTGAAATTCATCGTTTTGCGGAGTCACCTAGTGCAG	8270 fluorescence intensity (a.u.)
TGTTTCGGCGCAAGAGGTCGCCTACCTGCACAAGTTCTGTCGGAGTCACCTAGTGCAG	8170 fluorescence intensity (a.u.)
TTTTCCTTAGTCAAAGTTATATATGTTTGACTAAATTTATCGGAGTCACCTAGTGCAG	18000 fluorescence intensity (a.u.)
GGGATGGCGGTTCTCATTTTCTCAAGTGATAGAATCCAATCGGAGTCACCTAGTGCAG	8830 fluorescence intensity (a.u.)
GAGTTTTTCCATACTACGTTTCACCACTCGTCTTATTCAACGGAGTCACCTAGTGCAG	11800 fluorescence intensity (a.u.)
AGTTTTGTCACATGATGGATTTCGATGCCACACTAATCTTCGGAGTCACCTAGTGCAG	9910 fluorescence intensity (a.u.)
ATTCACCATCGTTGTTTCTTTGTGATCTAATACGCGGACCCGGAGTCACCTAGTGCAG	8630 fluorescence intensity (a.u.)
AATATGGTGCATGGGCGTTGGTTAGTTTGGTTGGGTTGGTCGGAGTCACCTAGTGCAG	11200 fluorescence intensity (a.u.)
CTGTTTGAACAAGTGCACGTACGTACTCCGCTTATTAGTTCGGAGTCACCTAGTGCAG	8360 fluorescence intensity (a.u.)
GTGGTGTGTATATGGTGGTAGTTGCACAACAATAGTGAGACGGAGTCACCTAGTGCAG	8510 fluorescence intensity (a.u.)
GCATTTACGTTCAGTCTGGCCTTGTACTATACATTGCACCCGGAGTCACCTAGTGCAG	9160 fluorescence intensity (a.u.)
GCTCGCAGTCTCGCCCACCGCCACCGCCACTGCACTCCGGCGGAGTCACCTAGTGCAG	9250 fluorescence intensity (a.u.)
AATTATTTGTTCTGTATTGTTTTGTTTTACTATATCTTCTCGGAGTCACCTAGTGCAG	11200 fluorescence intensity (a.u.)
TGCTTTGTCCACTTCATCGGTTAGTTCAACCATCCATTTCCGGAGTCACCTAGTGCAG	12900 fluorescence intensity (a.u.)
CATCCTTCACAGCTGGCCATTTATTATAGAGTAATTTACACGGAGTCACCTAGTGCAG	10500 fluorescence intensity (a.u.)
CAACTGACGGCCCAGCCCGCTAGCCGCCTCCGCAAGTCCGCGGAGTCACCTAGTGCAG	8040 fluorescence intensity (a.u.)

Part of the list above, with each value named.
GTGGTGTGTATATGGTGGTAGTTGCACAACAATAGTGAGACGGAGTCACCTAGTGCAG
  binding signal = 8510 fluorescence intensity (a.u.)
GCATTTACGTTCAGTCTGGCCTTGTACTATACATTGCACCCGGAGTCACCTAGTGCAG
  binding signal = 9160 fluorescence intensity (a.u.)
GCTCGCAGTCTCGCCCACCGCCACCGCCACTGCACTCCGGCGGAGTCACCTAGTGCAG
  binding signal = 9250 fluorescence intensity (a.u.)

More entries follow:

Sequence	binding signal
CATAAACTTATTCCTTTCTCTTTCTTTTCTTTTGAAATCACGGAGTCACCTAGTGCAG	8280 fluorescence intensity (a.u.)
AATCCATAATTAGTAAATATTTACTGTAGCACCATATTGTCGGAGTCACCTAGTGCAG	9810 fluorescence intensity (a.u.)
CATGCCTCATCGTTGCTCCATACTACCACACCACACCTCACGGAGTCACCTAGTGCAG	11600 fluorescence intensity (a.u.)
CTCTCTGCCATCTCATCCACAGTGACCTCTCTCTCCAAGACGGAGTCACCTAGTGCAG	8600 fluorescence intensity (a.u.)
GAACCCGCCGCCGCCGCCGCCGCCTCCGCCTGTAGCGAGACGGAGTCACCTAGTGCAG	8350 fluorescence intensity (a.u.)
ATTCGTCTGAAAATTGTGTTTCACATGCGTCATTTCTCTACGGAGTCACCTAGTGCAG	8080 fluorescence intensity (a.u.)
GTTAGTAACTTATTTACTCATAGCTGATCGACTTAGTAATCGGAGTCACCTAGTGCAG	8140 fluorescence intensity (a.u.)
ATTGGTCCACGCGCTCACACGAGTTTACACTTATGCCCCTCGGAGTCACCTAGTGCAG	9710 fluorescence intensity (a.u.)
TTTTTCTCTCCCGATCGATCGCGAATCCCTTTCCGTTGGCCGGAGTCACCTAGTGCAG	9350 fluorescence intensity (a.u.)
TTGGCAAATTGACCGTGATGGGTTCTTTGTTTCCGTTTGCCGGAGTCACCTAGTGCAG	8390 fluorescence intensity (a.u.)
TTAGTATGTCTAGATTTGTTGTATTAGGAAACGTCTAATCCGGAGTCACCTAGTGCAG	9040 fluorescence intensity (a.u.)
ATCACATAACACACTCGCAATCTCACATGGTAACACTACCCGGAGTCACCTAGTGCAG	8490 fluorescence intensity (a.u.)
GCCTCGAATCTAAATACTCCTACATAGGTTTCATACTTTCCGGAGTCACCTAGTGCAG	10000 fluorescence intensity (a.u.)
ATTTTCCTATGAGTCATCAGCTGTTGACCAAACGATGAGACGGAGTCACCTAGTGCAG	8740 fluorescence intensity (a.u.)
GCATCGAAATACTATTTTCGTTCATTGGTATGTTCTCATTCGGAGTCACCTAGTGCAG	9860 fluorescence intensity (a.u.)
AAATTACCGCCGTTACACTATATTTACAATGTAAATACACCGGAGTCACCTAGTGCAG	9370 fluorescence intensity (a.u.)
ATATCCAGGTGTGTATTCTTGCTTGTGCTTTTGATGTGCCCGGAGTCACCTAGTGCAG	8560 fluorescence intensity (a.u.)
CTAGCTACCTTTACCTTTTTCGATCTCTTCTCTTCATCTCCGGAGTCACCTAGTGCAG	10200 fluorescence intensity (a.u.)
CAAAATGTTTGACATCGTTGACTTTTTAGCACATGTTTGACGGAGTCACCTAGTGCAG	15300 fluorescence intensity (a.u.)
CATACATGTTACATCTCATCTCACAGGCAGGCGCTCGTACCGGAGTCACCTAGTGCAG	8270 fluorescence intensity (a.u.)
AATGTGAGGGTTGGGTCCAAAAAGGTTTGGGCTGAAATTTCGGAGTCACCTAGTGCAG	12100 fluorescence intensity (a.u.)

Sequence	binding signal
TTTCTTTTCTTTTCTTTTTTTTTTTGGGGCAACTGTTAGACGGAGTCACCTAGTGCAG	10500 fluorescence intensity (a.u.)
TGATTGCTTCTCTGTTCCCATTCCCTTTCTACGCACACTGCGGAGTCACCTAGTGCAG	8800 fluorescence intensity (a.u.)
ACTCTCTCCCGGCAATAATTGGTGACTGCTTCCACTTTTACGGAGTCACCTAGTGCAG	9380 ± 810 fluorescence intensity (a.u.)
CCCACACGCATCTCCCAACTCGACTCGACCCAACGTCCCACGGAGTCACCTAGTGCAG	8240 fluorescence intensity (a.u.)
CCCTTGTCATCGTCATCCGATTGTGCCTTCCCTGATTTTCCGGAGTCACCTAGTGCAG	8430 fluorescence intensity (a.u.)
ATGCCCATTGACTATCCCTAGTACTACTATGTGTTTGATCCGGAGTCACCTAGTGCAG	8730 fluorescence intensity (a.u.)
TGCACTCGTGCGTATGCCGTCTTATCTCCTGCATATGCCGCGGAGTCACCTAGTGCAG	9390 fluorescence intensity (a.u.)
TATGCTCACTCTTGAGAGTCCGGAACGTTGACCTTGCTATCGGAGTCACCTAGTGCAG	10000 fluorescence intensity (a.u.)
CCAGACAGCTTCAGTTTGCAACGTACCCAAGTAAGAAACACGGAGTCACCTAGTGCAG	9150 fluorescence intensity (a.u.)
GATTCGATGTATTTTGTTCATATGTTCATGCTTGGGCAAGCGGAGTCACCTAGTGCAG	9010 fluorescence intensity (a.u.)
GCCTAGTACATAACTCGAACCCTACTCCTATCTCCAAAATCGGAGTCACCTAGTGCAG	8560 fluorescence intensity (a.u.)
CTCCTCGGCCGTATCGCCTAACTACACCACCCCATCTTCTCGGAGTCACCTAGTGCAG	11000 fluorescence intensity (a.u.)
CGTACCAAACCACAAAGTCATTACCCCGTTCATTTGTCAACGGAGTCACCTAGTGCAG	8680 fluorescence intensity (a.u.)
GTGAGATTCATCCAGATTCCTGGACGGCCAGCTCATTTCCCGGAGTCACCTAGTGCAG	8160 fluorescence intensity (a.u.)
TTTATGAGCTCATCAACTTCTTTCAAGTCCCTGTACTTGACGGAGTCACCTAGTGCAG	9860 fluorescence intensity (a.u.)
AGCTACAGTCTACCATTGTCGTTGGTCTGATCATGAGCTCCGGAGTCACCTAGTGCAG	8170 fluorescence intensity (a.u.)
TTATGTCACATTAGTGTACTCGCTCTTAATTTTCGTCTCTCGGAGTCACCTAGTGCAG	8250 fluorescence intensity (a.u.)
GCGCCGCAGCCTCCGCCACCCGCGCGCCGTAGCCGACGACCGGAGTCACCTAGTGCAG	8860 fluorescence intensity (a.u.)
CAAGCATGCACTAATCTACCTCTCCATTTTACGTACTTGACGGAGTCACCTAGTGCAG	8340 fluorescence intensity (a.u.)
AAAAATATCTCCCGCGAGTTCCTCATGGCTTATCATAGCACGGAGTCACCTAGTGCAG	9410 fluorescence intensity (a.u.)
TATTATTTATAGTCCACCGCTAGCCATCGCACTCTGCAGCCGGAGTCACCTAGTGCAG	12200 fluorescence intensity (a.u.)

Reference: article PMC7819943, “Rice protein-binding microarrays: a tool to detect cis-acting elements near promoter regions in rice”
